In publication PMC10520678:
No constants are given. Whether binding was seen depends on the method and setting. In cells and extracts the contact can be indirect. Some binding calls cover weakened binding; strength is not graded here.

The chains behind the UniProt entries cited, without tags or fusion partners. Where a name states a change or a piece, a line headed by the entry shows the natural chain unless it says otherwise. A line that says so, or that is headed by a name, gives the form on record, which may keep a tag or linker. Residues count along the entry.
WT Flag-CD47 (human) (Q08722, residues 19-323): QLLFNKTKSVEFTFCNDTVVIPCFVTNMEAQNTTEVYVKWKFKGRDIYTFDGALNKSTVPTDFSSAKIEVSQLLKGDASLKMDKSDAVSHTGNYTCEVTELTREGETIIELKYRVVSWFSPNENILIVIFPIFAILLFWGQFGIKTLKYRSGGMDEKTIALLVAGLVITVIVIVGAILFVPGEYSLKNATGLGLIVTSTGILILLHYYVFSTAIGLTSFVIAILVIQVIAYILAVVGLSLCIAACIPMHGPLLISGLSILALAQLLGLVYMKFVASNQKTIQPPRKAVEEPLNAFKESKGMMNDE
Flag-CD47 Y288F (human) (Q08722, form named): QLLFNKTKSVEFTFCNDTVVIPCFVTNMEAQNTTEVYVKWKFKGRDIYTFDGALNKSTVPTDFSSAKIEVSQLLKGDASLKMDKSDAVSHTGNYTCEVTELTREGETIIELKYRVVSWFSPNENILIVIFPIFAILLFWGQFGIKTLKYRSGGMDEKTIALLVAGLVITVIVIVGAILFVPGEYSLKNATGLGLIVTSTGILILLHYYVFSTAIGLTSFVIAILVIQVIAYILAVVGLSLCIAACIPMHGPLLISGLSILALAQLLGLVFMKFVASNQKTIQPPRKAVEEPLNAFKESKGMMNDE
UniProt P19474: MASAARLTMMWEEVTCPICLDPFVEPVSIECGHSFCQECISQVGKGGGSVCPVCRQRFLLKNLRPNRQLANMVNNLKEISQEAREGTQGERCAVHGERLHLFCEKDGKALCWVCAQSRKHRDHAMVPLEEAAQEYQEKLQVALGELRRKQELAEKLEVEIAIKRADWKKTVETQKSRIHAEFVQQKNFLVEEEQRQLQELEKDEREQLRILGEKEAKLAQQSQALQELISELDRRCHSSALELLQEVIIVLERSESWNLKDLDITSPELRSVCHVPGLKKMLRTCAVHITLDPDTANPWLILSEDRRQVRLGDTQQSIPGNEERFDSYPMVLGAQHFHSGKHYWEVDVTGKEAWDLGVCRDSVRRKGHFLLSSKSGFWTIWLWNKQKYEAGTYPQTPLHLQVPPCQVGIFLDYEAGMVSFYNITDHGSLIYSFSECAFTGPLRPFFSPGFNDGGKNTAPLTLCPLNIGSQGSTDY

Tests used:
[1] = biological target: CD47 (integrin-associated protein), endogenous in U251 cells (human (endogenous in U251)) (UniProt Q08722); test: co-IP; endogenous CD47 immunoprecipitated with an anti-CD47 antibody from U251 lysates, immunoblot for the partner; cells serum-starved and with or without EGF (100 ng/mL, 1 h), with EGFR inhibitors, or transfected with c-Src WT or c-Src CA (48 h)
[2] = biological target: WT Flag-CD47 (human) (human) (UniProt Q08722); test: co-IP; Flag-CD47 or Flag-CD47 Y288F transiently transfected in HEK293T/EGFR cells, with or without EGF (100 ng/mL, 1 h) or c-Src CA expression; immunoprecipitation with anti-Flag beads, immunoblot for TRIM21
[3] = biological target: Flag-CD47 Y288F (human) (human) (UniProt Q08722); test: as above

| binding [1] | binding [2] | binding [3] | Substance |
| --- | --- | --- | --- |
| binds |  |  | TRIM21 (tripartite motif-containing protein 21), endogenous in U251 cells (from UniProt P19474 1-475) (enzyme) |
|  | binds | binds | TRIM21, in HEK293T/EGFR cells (from UniProt P19474 1-475) (enzyme) |
